Among the data in the supplement of paper PMC10849652 are log2 fold change values, retold here.

The chains behind the UniProt entries cited, without tags or fusion partners. Where a name states a change or a piece, a line headed by the entry shows the natural chain unless it says otherwise.
UniProt Q9BRD0: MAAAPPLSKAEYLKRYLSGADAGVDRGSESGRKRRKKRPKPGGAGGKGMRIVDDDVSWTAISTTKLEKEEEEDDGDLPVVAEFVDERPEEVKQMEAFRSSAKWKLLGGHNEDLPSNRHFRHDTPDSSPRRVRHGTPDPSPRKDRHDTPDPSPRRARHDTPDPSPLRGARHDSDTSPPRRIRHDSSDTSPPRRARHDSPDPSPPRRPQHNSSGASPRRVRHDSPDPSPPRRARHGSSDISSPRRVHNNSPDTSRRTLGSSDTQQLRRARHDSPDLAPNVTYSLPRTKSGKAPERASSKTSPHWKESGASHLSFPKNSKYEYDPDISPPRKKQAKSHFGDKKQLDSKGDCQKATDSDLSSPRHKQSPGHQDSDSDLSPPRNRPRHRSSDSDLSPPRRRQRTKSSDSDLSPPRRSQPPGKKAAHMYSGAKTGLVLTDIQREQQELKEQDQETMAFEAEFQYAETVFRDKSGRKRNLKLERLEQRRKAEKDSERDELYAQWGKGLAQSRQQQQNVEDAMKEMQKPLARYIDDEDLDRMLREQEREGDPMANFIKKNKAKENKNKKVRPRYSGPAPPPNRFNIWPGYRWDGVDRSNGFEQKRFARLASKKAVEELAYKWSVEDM
UniProt Q96MD7: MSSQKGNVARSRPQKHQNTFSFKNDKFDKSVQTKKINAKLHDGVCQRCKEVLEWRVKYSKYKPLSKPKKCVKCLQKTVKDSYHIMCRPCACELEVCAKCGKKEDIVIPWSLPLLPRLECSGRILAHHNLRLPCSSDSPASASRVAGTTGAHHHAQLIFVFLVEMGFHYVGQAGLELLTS
UniProt Q9Y426: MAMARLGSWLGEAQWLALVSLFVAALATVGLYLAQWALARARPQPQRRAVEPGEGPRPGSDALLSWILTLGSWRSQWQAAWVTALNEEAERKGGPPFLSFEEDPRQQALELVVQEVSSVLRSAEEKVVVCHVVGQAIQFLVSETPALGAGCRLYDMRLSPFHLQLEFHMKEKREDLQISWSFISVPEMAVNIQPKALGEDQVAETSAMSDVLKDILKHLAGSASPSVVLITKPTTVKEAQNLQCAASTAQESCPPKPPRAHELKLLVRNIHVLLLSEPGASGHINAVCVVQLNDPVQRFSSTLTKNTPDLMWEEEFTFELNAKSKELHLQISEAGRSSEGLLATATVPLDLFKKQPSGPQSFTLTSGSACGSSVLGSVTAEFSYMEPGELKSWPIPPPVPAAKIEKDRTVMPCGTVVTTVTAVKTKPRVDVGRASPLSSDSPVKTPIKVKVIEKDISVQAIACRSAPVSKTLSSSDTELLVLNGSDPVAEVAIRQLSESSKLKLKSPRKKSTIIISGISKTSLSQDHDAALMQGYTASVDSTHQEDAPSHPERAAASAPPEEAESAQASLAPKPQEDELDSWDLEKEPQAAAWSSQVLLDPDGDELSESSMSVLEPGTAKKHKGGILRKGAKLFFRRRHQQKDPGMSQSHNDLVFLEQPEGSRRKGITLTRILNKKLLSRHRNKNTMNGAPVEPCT
UniProt Q96MH7: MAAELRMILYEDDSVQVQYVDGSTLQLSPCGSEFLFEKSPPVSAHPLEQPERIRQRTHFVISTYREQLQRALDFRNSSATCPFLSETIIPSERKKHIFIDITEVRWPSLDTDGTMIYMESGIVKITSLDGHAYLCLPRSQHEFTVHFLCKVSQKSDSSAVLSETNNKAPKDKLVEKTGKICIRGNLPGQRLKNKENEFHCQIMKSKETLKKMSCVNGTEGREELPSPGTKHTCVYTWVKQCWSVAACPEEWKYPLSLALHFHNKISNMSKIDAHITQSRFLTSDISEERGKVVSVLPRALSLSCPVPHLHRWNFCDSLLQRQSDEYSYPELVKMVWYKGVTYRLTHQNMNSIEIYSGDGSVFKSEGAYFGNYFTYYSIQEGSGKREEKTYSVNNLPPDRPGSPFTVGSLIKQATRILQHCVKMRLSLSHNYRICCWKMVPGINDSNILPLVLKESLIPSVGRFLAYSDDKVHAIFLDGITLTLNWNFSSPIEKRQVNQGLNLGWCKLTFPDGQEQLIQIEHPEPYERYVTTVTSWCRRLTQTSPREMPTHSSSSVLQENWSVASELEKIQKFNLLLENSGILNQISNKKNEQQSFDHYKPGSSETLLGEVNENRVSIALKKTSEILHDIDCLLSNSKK
UniProt Q9NZP8: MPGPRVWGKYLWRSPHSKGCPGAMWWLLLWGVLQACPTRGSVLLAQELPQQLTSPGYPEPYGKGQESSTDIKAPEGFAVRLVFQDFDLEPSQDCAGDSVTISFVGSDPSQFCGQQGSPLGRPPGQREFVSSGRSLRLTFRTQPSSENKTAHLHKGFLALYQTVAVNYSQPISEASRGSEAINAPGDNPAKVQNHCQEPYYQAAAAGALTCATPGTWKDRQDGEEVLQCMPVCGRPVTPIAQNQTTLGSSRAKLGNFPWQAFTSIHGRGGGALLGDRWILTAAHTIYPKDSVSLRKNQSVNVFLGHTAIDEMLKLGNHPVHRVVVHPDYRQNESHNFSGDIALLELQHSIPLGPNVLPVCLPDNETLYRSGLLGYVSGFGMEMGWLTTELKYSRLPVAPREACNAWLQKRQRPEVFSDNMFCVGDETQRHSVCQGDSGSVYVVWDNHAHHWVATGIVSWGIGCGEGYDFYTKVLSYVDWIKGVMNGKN
UniProt Q86VG3: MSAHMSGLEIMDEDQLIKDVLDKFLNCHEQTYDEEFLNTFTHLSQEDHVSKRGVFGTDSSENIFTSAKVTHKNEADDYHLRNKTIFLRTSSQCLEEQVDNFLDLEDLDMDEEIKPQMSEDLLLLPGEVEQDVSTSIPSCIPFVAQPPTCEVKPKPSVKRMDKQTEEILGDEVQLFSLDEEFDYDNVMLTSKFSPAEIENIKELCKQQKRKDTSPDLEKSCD
UniProt A1L170: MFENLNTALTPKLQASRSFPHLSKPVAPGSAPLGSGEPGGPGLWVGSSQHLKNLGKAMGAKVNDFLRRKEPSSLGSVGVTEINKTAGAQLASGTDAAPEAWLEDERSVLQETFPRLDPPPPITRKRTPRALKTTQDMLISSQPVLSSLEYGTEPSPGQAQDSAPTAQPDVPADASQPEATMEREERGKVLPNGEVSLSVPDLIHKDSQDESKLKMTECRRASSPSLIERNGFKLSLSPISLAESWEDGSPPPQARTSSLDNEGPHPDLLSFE
UniProt Q6ZRI6: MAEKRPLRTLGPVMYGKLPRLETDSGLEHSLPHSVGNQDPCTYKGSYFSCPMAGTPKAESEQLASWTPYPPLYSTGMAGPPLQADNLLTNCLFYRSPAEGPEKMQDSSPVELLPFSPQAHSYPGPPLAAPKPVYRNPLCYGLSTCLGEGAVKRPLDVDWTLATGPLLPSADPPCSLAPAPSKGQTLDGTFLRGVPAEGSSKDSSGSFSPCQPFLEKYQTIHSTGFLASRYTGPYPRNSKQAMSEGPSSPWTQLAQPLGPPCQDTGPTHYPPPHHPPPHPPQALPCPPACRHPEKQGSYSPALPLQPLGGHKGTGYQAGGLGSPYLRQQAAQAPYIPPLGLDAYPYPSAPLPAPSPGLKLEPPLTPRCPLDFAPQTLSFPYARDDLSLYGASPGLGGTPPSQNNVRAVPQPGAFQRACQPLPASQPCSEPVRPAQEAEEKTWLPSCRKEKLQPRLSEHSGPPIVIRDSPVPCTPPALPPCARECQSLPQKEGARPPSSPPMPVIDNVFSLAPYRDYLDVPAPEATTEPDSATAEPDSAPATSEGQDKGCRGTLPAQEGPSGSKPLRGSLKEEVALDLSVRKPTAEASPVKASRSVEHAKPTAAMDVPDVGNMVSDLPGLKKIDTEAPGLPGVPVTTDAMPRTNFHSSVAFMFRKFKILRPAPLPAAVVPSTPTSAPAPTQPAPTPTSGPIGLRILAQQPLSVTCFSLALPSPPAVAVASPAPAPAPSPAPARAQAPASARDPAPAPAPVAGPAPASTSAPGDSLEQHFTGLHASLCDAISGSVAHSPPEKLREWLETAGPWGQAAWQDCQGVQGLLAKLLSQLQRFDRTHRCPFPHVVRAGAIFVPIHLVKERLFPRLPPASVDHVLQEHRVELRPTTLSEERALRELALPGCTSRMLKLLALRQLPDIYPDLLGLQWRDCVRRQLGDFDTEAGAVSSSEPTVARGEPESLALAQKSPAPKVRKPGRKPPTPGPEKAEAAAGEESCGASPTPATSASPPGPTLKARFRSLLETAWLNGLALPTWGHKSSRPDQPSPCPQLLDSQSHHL
UniProt Q08AD1: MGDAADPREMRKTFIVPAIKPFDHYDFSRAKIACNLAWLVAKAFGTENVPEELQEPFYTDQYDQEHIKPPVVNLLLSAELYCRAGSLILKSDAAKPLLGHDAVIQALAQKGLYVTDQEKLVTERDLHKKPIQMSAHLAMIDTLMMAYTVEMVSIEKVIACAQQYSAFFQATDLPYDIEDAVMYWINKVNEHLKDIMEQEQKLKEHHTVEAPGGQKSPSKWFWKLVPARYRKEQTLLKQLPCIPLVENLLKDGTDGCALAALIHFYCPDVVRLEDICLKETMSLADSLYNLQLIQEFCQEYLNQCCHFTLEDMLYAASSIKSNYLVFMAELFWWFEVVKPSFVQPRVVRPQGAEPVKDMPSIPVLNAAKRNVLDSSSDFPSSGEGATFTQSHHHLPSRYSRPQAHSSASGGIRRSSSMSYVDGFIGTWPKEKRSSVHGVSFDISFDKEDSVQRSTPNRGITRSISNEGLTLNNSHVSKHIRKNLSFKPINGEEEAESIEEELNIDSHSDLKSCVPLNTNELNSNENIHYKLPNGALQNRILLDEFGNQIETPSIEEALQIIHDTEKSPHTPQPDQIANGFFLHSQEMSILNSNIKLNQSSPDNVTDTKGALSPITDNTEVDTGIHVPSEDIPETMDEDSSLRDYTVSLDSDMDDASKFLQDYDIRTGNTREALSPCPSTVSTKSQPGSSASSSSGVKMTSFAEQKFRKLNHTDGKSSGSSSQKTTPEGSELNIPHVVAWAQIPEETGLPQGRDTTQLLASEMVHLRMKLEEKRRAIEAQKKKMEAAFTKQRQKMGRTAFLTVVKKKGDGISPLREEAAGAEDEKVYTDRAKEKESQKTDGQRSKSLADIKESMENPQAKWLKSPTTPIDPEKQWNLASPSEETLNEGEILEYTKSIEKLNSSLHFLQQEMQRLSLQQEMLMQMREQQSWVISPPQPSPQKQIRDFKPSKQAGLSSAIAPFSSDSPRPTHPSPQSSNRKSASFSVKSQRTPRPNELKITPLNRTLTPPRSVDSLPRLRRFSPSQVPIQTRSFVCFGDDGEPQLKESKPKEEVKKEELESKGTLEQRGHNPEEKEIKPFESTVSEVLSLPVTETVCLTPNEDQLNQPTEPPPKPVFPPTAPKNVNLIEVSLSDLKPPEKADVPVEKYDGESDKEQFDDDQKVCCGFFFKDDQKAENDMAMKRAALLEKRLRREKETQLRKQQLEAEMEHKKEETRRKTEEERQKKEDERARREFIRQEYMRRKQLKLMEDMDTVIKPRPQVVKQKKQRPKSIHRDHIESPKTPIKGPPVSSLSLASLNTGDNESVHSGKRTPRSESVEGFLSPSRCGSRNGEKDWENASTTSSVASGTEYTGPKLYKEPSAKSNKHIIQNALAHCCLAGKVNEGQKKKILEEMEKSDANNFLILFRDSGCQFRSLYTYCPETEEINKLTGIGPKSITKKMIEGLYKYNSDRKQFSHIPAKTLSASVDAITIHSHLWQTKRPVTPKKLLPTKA
UniProt Q8NDD1: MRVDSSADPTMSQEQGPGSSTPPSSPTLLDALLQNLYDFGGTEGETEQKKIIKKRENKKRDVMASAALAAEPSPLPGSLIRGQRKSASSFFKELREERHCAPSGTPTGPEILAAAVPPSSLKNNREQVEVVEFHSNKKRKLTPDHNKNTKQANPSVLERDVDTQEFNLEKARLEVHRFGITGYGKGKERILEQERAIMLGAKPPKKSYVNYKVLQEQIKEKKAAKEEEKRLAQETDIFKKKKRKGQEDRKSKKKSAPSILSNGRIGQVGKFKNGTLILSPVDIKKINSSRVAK
UniProt Q96HA4: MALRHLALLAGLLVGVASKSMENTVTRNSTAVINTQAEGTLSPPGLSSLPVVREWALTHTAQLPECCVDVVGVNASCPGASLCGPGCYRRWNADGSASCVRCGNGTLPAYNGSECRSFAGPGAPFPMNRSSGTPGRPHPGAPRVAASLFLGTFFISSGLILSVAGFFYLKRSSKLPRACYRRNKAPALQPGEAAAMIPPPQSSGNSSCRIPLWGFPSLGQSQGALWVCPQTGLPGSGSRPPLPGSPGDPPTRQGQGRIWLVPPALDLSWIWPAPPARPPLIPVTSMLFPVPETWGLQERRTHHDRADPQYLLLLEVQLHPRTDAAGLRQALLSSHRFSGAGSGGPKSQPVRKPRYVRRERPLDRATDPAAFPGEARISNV

The list shows a part of the results.

Common to all, as to test: log2 fold change, soluble protein after heating vs DMSO (PISA); higher = thermal stabilisation; K562 lysate, 10 uM; active = over 0.2 and 3.5 SD of the protein, either way, in both replicates (recomputed)
Compound in assay [1]: C1=CC=C(C=C1)[C@H](COC2=CC3=C(C=C2)NC(=O)N3)NC(=O)C4=CC=CN(C4=O)CC5=CC(=C(C=C5)F)F
The method, boiled down: (§1)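 Log-two fold change in thermal stability relative to solvent controls is reported from duplicates. For each sample, crude K562 extract from dounce-homogenised pellets in PBS pH 7.4 with 1 mM MgCl2, at 1 mg/mL protein, was treated with 10 μM compound for 30 min. Aliquots heated for 3 min across 48°C-58°C were pooled, brought to 0.5% NP-40 at 4°C and cleared at 21,000xg for 90 min. The supernatant was quantified by TMTpro 16plex LC-MS/MS with channel sums equalised.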

Compound in assay [2]: CC1=C(SC2=C1C(=N[C@H](C3=NN=C(N32)C)CC(=O)N)C4=CC=C(C=C4)Cl)C
The method, boiled down: as §1

Compound in assay [3]: Cc1sc2c(c1C)C(c1ccc(Cl)cc1)=N[C@@H](CC(=O)OC(C)(C)C)c1nnc(C)n1-2
The method, boiled down: as §1

Compound in assay [4]: c1ccc([C@@H]2C[C@H]2NC2CCNCC2)cc1
The method, boiled down:
as §1

Compound in assay [5]: CC1=C2C(=CC=C1)N=C(N(C2=O)C3=CC=CC=C3C)CN4C=NC5=C(N=CN=C54)N
The method, boiled down: as §1

On to BUD13 (UniProt Q9BRD0), for which the log2 fold change in assay [1] is inactive: -0.037; in assay [2], inactive: 0.068; in assay [3] it was inactive: -0.162; in assay [4], inactive: 0.029.
On to C9orf85 isoform 1 (UniProt Q96MD7), for which the log2 fold change in assay [1] was inactive: 0.046; in assay [2] it was inactive: -0.063; in assay [3], inactive: -0.023; in assay [4], inactive: 0.005.
On the same counts, the results for C2CD2 (UniProt Q9Y426) are inactive: -0.07, inactive: 0.157, inactive: -0.105 and inactive: 0.086.
Consider C5orf34 (UniProt Q96MH7), for which the figures for the log2 fold change in assay [5] and in assay [3] were inactive: 0.151 and inactive: -0.091, respectively.
Take C1RL (UniProt Q9NZP8): in assay [4], the log2 fold change was inactive: 0.057.
C11orf74 (UniProt Q86VG3): the figures for the log2 fold change in assay [5] and in assay [3] were inactive: 0.005 and inactive: 0.065, respectively.
With CANX (UniProt D6RHJ3), the log2 fold change in assay [5] is inactive: 0.072.
Same read-out and setting: next, C1orf226 isoform 2 (UniProt A1L170): inactive: -0.052.
In the case of C15orf39 (UniProt Q6ZRI6), the log2 fold change in assay [1] is inactive: -0.095; in assay [2], inactive: 0.049; in assay [3] it was inactive: 0.032; in assay [4], inactive: 0.161.
On to CAD (UniProt H7BZB3), for which the log2 fold change in assay [5] is inactive: -0.011; in assay [4], inactive: -0.003.
For the target CAMSAP2 (UniProt Q08AD1), the log2 fold change in assay [5] is inactive: 0.013; in assay [3] it was inactive: 0.042; in assay [4], inactive: -0.032.
With CAP1 (UniProt Q5T0R8), the log2 fold change in assay [4] is inactive: 0.05.
Turning to C1orf131 isoform 5 (UniProt Q8NDD1), the log2 fold change in assay [5] is inactive: 0.096; in assay [3] it was inactive: -0.009; in assay [4] it was inactive: -0.108.
Take C1orf159 isoform 4 (UniProt Q96HA4): the log2 fold change in assay [3] was inactive: -0.024; in assay [4] it was inactive: -0.055.
